One data set in a line: general procedure: Fmoc solid-phase peptide synthesis; 2-chlorotrityl resin (Chempep, 0.81 mmol/g). The settings on record: conjugation step.
Consider “N,N′-((7R,11S,19aS,26R,30S,38aS)-11,30-diisopropyl-12,31-dimethyl-6,10,13,19,25,29,32,38-octaoxodotriacontahydro-2H,6H,16H,25H-dipyrido[1,2-a1: 1′,2′-k][1,17]dioxa[4,7,11,14,20,23,27,30]octaazacyclodotriacontine-7,26-diyl)bis(3-(benzyloxy)quinoline-2-carboxamide)”, for which the conjugation yield turned out to be 60% yield.
On the same count and under the same terms, for “[(2-{[(3R,7S,16S,23R,27S,36S)-23-[3-({4-[(2S)-5-(carbamoylamino)-2-[(2S)-2-[3-(2-{2- [2-(2,5-dioxopyrrol-1-yl)ethoxy]ethoxy}ethoxy)propanamido]-3-methylbutanamido]pentanamido]phenyl}methoxy)quinoline-2-amido]-7,27-diisopropyl-8,11,28,31-tetramethyl-2,6,9,12,15,22,26,29,32,35-decaoxo-1,5,8,11,14,21,25,28,31,34-decaazatricyclo[34.4.0.0^16,21]tetracontan-3-yl]carbamoyl}quinolin-3-yl)oxy]methoxy ([2-acetamidoethoxy(hydroxy)phosphoryl]oxy)phosphinic acid” the value was 49% yield.

Still in this data set, the particulars now being: cyclisation step.
As to “di-tert-butyl ((7R,11S,19aS,26R,30S,38aS)-11,30-diisopropyl-12,15,31,34-tetramethyl-6,10,13,16,19,25,29,32,35,38-decaoxohexatriacontahydro-2H,6H-dipyrido[1,2-a:1′,2′-q][1,4,7,10,13,17,20,23,26,29]decaazacyclodotriacontine-7,26-diyl)dicarbamate”, the cyclisation yield is given as 34% yield.

Still in this data set, the particulars now being: late stage modification step.
Substance “N,N′-((7R,11S,19aS,26R,30S,38aS)-11,30-diisopropyl-12,31-dimethyl-6,10,13,19,25,29,32,38-octaoxodotriacontahydro-2H,6H,16H,25H-dipyrido[1,2-a1: 1′,2′-k][1,17]dioxa[4,7,11,14,20,23,27,30]octaazacyclodotriacontine-7,26-diyl)bis(3-hydroxyquinoline-2-carboxamide)” yielded a step yield of 75% yield.
The substance “N,N′-((7R,11S,19aS,26R,30S,38aS)-11-((S)-sec-butyl)-30-isopropyl-12,15,31,34-tetramethyl-6,13,16,19,25,29,32,35,38-nonaoxotetratriacontahydro-2H,6H,10H-dipyrido[2,1-b1: 2′,1′-l][1]oxa[4,7,10,13,17,20,23,26,29]nonaazacyclodotriacontine-7,26-diyl)bis(3-hydroxyquinoline-2-carboxamide)” returned a step yield of 42% yield.
On the same count and under the same terms, for “N,N′-((7R,11S,19aS,26R,30S,38aS)-12,31-diethyl-11,30-diisopropyl-15,34-dimethyl-6,10,13,16,19,25,29,32,35,38-decaoxohexatriacontahydro-2H,6H-dipyrido[1,2-a:1′,2′-q][1,4,7,10,13,17,20,23,26,29]decaazacyclodotriacontine-7,26-diyl)bis(3-hydroxyquinoline-2-carboxamide)” the value was 30% yield; for “N,N′-((7R,11S,19aS,26R,30S,38aS)-15,34-diethyl-11,30-diisopropyl-12,31-dimethyl-6,10,13,16,19,25,29,32,35,38-decaoxohexatriacontahydro-2H,6H-dipyrido[1,2-a:1′,2′-q][1,4,7,10,13,17,20,23,26,29]decaazacyclodotriacontine-7,26-diyl)bis(3-hydroxyquinoline-2-carboxamide)”, 33% yield; for “N,N′-((7′R,19a'S,26′R,30'S,38a'S)-30′-isopropyl-12′,15′,31′,34′-tetramethyl-6′,10′,13′,16′,19′,25′,29′,32′,35′,38′-decaoxotetratriacontahydro-2′H,6′H,12′H-spiro[cyclobutane-1,11′-dipyrido[1,2-a:1′,2′-q][1,4,7,10,13,17,20,23,26,29]decaazacyclodotriacontine]-7′,26′-diyl)bis(3-hydroxyquinoline-2-carboxamide)”, 31% yield.
On the same count and under the same terms, under “N,N′-((7′R,19a'S,26′R,30'S,38a'S)-30′-isopropyl-12′,15′,31′,34′-tetramethyl-6′,10′,13′,16′,19′,25′,29′,32′,35′,38′-decaoxotetratriacontahydro-2′H,6′H,12′H-spiro[cyclopropane-1,11′-dipyrido[1,2-a:1′,2′-q][1,4,7,10,13,17,20,23,26,29]decaazacyclodotriacontine]-7′,26′-diyl)bis(3-hydroxyquinoline-2-carboxamide)” stands 36% yield; under “N,N′-((13S,16R,19aS,32S,35R,38aS)-13,32-diisopropyl-8,14,27,33-tetramethyl-6,9,12,15,19,25,28,31,34,38-decaoxohexatriacontahydro-2H,6H-dipyrido[2,1-c: 2′,1′-s][1,4,7,10,13,17,20,23,26,29]decaazacyclodotriacontine-16,35-diyl)bis(3-hydroxyquinoline-2-carboxamide)”, 8% yield.
The same measure, in the same setting: for “N-((7R,10aS,22aS,29R,32aS,44aS)-29-amino-18,40-dimethyl-6,10,16,19,22,28,32,38,41,44-decaoxotetratetracontahydrotetrapyrido[1,2-a:1′,2′-j:1″,2″-q:1′″,2′″-z][1,4,7,10,13,17,20,23,26,29]decaazacyclodotriacontin-7-yl)-3-hydroxyquinoline-2-carboxamide (Compound 239)” the value was 91% yield; for “N-((7R,11S,19aS,26R,30S,38aS)-7-amino-11,30-diisopropyl-12,15,31,34-tetramethyl-6,13,16,19,25,29,32,35,38-nonaoxotetratriacontahydro-2H,6H,10H-dipyrido[2,1-b1: 2′,1′-l][1]oxa[4,7,10,13,17,20,23,26,29]nonaazacyclodotriacontin-26-yl)-3-hydroxyquinoline-2-carboxamide (Compound 254)”, 39% yield.

(Values after patent US20240376154A1 (ZYMEWORKS BC INC., priority 2023, published 2024).)
